PubChem BioAssay AID504784 – Drosophila RNAi Screening Center, 2011

Aim: 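Search for regulators of lipid droplet storage in oleate-fed fly cells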 (primary screen)
Cells: Drosophila Kc167 embryonic cells
Knock-down reagent: long dsRNA against Drosophila genes, about 250 ng dsRNA per well
Time to read-out: 4 days
Conditions: cells fed 400 µM oleic acid bound to BSA
Measurement: 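Microscope images give a droplet-to-nucleus area ratio, taken as log and converted to a screen-wide B-score; higher values mean greater lipid storage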
Reading the numbers: droplet/nuclear area B-score: higher = more stored lipid (overstorage)
In all, the deposit lists about 17,000 reagents; this is a random part of those that have a named target and a result. 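Each column is one replicate's B-score; the combined score over replicates was not deposited, so single values may mislead.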 Names joined by + are all predicted targets of the reagent. Not all columns of the deposit are shown. No sequences are given here.

CG13721 [DRSC08330]
- droplet/nuclear area B-score, replicate 1: -0.0299

Sod2 [DRSC07554]
- droplet/nuclear area B-score, replicate 1: -2.14

l(2)27Cb (retired record) [DRSC02758]
- droplet/nuclear area B-score, replicate 1: 0.362

CG33107 [DRSC21898]
- droplet/nuclear area B-score, replicate 1: -0.0184

Rs1 [DRSC05945]
- droplet/nuclear area B-score, replicate 1: -0.752

Mad [DRSC00759]
- droplet/nuclear area B-score, replicate 1: -1.09

CG12994 [DRSC19514]
- droplet/nuclear area B-score, replicate 1: 1.31

lectin-37Db [DRSC03279]
- droplet/nuclear area B-score, replicate 1: -1.51

dpa [DRSC07604]
- droplet/nuclear area B-score, replicate 1: -0.532

CG7824 [DRSC16321]
- droplet/nuclear area B-score, replicate 1: 0.303

Nek2 [DRSC18124]
- droplet/nuclear area B-score, replicate 1: -0.234

CG3909 [DRSC14150]
- droplet/nuclear area B-score, replicate 1: -1.67

TyrR [DRSC16242]
- droplet/nuclear area B-score, replicate 1: 0.0605

Grip [DRSC17940]
- droplet/nuclear area B-score, replicate 1: -3.53

Grip [DRSC18395]
- droplet/nuclear area B-score, replicate 1: 0.678

CG1628 [DRSC18109]
- droplet/nuclear area B-score, replicate 1: -0.295

Uqcc1 + CG9948 [DRSC09690]
- droplet/nuclear area B-score, replicate 1: 0.617

CG42724 [DRSC12567]
- droplet/nuclear area B-score, replicate 1: 0.793

CG42724 [DRSC22275]
- droplet/nuclear area B-score, replicate 1: 3.15

CG13361 [DRSC17896]
- droplet/nuclear area B-score, replicate 1: -0.386

z [DRSC18855]
- droplet/nuclear area B-score, replicate 1: 0.186

z [DRSC23134]
- droplet/nuclear area B-score, replicate 1: -0.248

CG2065 [DRSC06813]
- droplet/nuclear area B-score, replicate 1: -2.32

CG2065 [DRSC21328]
- droplet/nuclear area B-score, replicate 1: 0.482

Pbgs [DRSC09718]
- droplet/nuclear area B-score, replicate 1: 0.924

Tbh [DRSC18723]
- droplet/nuclear area B-score, replicate 1: 0.355

CG30458 [DRSC06660]
- droplet/nuclear area B-score, replicate 1: -0.957

B9d1 [DRSC14993]
- droplet/nuclear area B-score, replicate 1: 1.09

Sfxn2 [DRSC10718]
- droplet/nuclear area B-score, replicate 1: 3.95

RpS21 [DRSC00833]
- droplet/nuclear area B-score, replicate 1: 0.995

CG3270 [DRSC04988]
- droplet/nuclear area B-score, replicate 1: 0.565

CG33339 [DRSC22917]
- droplet/nuclear area B-score, replicate 1: -0.242

Nopp140 [DRSC11872]
- droplet/nuclear area B-score, replicate 1: -0.0743

ProRS-m [DRSC08261]
- droplet/nuclear area B-score, replicate 1: 1.55

CG34112 [DRSC12235]
- droplet/nuclear area B-score, replicate 1: -0.815

Glt [DRSC03333]
- droplet/nuclear area B-score, replicate 1: -0.607

CG7579 [DRSC10885]
- droplet/nuclear area B-score, replicate 1: -1.23

CG10550 [DRSC14251]
- droplet/nuclear area B-score, replicate 1: -0.248

eIF4E1 [DRSC11342]
- droplet/nuclear area B-score, replicate 1: 1.81

Drep1 [DRSC07527]
- droplet/nuclear area B-score, replicate 1: -0.836

4 successive entries from above, for reference:
CG42724 [DRSC22275]
- droplet/nuclear area B-score, replicate 1: 3.15

CG13361 [DRSC17896]
- droplet/nuclear area B-score, replicate 1: -0.386

z [DRSC18855]
- droplet/nuclear area B-score, replicate 1: 0.186

z [DRSC23134]
- droplet/nuclear area B-score, replicate 1: -0.248
